Paper PMC9915769, “A novel binding site on the cryptic intervening domain is a motif-dependent regulator of O-GlcNAc transferase” (Research Square, 2023)
These are yes or no findings as the source states them, for the method shown. In cells and extracts the contact can be indirect. A result given as binding can be weak or reduced; the word gives no strength. Sequences can lack the tags named with a protein.

The chains behind the UniProt entries cited, without tags or fusion partners. Where a name states a change or a piece, a line headed by the entry shows the natural chain unless it says otherwise.
UniProt O15294: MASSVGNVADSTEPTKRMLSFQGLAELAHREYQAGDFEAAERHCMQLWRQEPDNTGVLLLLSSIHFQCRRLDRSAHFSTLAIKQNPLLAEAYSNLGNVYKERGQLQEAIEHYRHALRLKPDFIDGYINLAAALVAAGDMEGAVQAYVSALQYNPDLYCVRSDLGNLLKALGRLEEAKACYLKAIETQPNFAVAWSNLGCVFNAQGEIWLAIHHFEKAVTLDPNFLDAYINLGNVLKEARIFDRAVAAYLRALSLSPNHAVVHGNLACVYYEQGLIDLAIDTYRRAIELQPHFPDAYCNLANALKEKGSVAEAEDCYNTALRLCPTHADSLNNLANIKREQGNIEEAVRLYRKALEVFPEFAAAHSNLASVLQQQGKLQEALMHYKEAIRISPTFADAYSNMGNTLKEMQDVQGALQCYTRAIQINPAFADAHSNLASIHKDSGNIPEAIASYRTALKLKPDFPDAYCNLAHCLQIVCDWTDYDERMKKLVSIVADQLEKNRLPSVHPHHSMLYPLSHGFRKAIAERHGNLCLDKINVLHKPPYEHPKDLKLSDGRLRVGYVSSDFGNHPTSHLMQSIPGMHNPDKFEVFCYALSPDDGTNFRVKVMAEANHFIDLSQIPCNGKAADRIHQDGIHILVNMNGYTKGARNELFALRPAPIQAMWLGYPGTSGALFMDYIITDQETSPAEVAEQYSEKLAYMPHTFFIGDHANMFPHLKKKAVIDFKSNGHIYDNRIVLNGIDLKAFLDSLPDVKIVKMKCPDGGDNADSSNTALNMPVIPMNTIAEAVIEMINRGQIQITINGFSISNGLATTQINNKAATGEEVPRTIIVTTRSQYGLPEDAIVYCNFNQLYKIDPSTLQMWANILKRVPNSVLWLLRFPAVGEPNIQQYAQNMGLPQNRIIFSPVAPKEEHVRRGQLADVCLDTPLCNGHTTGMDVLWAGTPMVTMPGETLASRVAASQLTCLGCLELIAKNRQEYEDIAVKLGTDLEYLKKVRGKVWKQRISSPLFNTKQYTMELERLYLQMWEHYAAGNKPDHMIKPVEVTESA

Assays:
Assay in all cases: co-IP; HEK293 cells (legend: TRex-293) co-transfected with Flag-OGT and cMyc-SMG9 constructs; lysate (150 mM NaCl, 1% NP-40, 20 mM Tris-HCl pH 7.4) on Flag M2 agarose 16 h at 4 C; western blot
[1] = target: Flag-tagged OGT I787E, mammalian expression (human) (UniProt O15294)
[2] = target: Flag-tagged OGT N791A, mammalian expression (human)
[3] = target: double mutant OGT (I787E-N791A), mammalian expression (human)
[4] = target: Flag-tagged OGT I734R, mammalian expression (human)

Measured: binding

B1: cMyc-tagged SMG9 (wild type) (protein, UniProt Q9H0W8 1-520)
chain: MSESGHSQPGLYGIERRRRWKEPGSGGPQNLSGPGGRERDYIAPWERERRDASEETSTSVMQKTPIILSKPPAERSKQPPPPTAPAAPPAPAPLEKPIVLMKPREEGKGPVAVTGASTPEGTAPPPPAAPAPPKGEKEGQRPTQPVYQIQNRGMGTAAPAAMDPVVGQAKLLPPERMKHSIKLVDDQMNWCDSAIEYLLDQTDVLVVGVLGLQGTGKSMVMSLLSANTPEEDQRTYVFRAQSAEMKERGGNQTSGIDFFITQERIVFLDTQPILSPSILDHLINNDRKLPPEYNLPHTYVEMQSLQIAAFLFTVCHVVIVVQDWFTDLSLYRFLQTAEMVKPSTPSPSHESSSSSGSDEGTEYYPHLVFLQNKARREDFCPRKLRQMHLMIDQLMAHSHLRYKGTLSMLQCNVFPGLPPDFLDSEVNLFLVPFMDSEAESENPPRAGPGSSPLFSLLPGYRGHPSFQSLVSKLRSQVMSMARPQLSHTILTEKNWFHYAARIWDGVRKSSALAEYSRLLA
binds: all assays above
